In paper PMC11711546 (2024):
No constants are given. Whether binding was seen depends on the method and setting. In cells and extracts the contact can be indirect. Some entries that bind do so weakly or less than the wild type. Where a sequence is shown, tags or fusion partners need not be part of it.

Sequences of proteins named here, by UniProt entry; tags and fusion partners are left off.
UniProt P48436: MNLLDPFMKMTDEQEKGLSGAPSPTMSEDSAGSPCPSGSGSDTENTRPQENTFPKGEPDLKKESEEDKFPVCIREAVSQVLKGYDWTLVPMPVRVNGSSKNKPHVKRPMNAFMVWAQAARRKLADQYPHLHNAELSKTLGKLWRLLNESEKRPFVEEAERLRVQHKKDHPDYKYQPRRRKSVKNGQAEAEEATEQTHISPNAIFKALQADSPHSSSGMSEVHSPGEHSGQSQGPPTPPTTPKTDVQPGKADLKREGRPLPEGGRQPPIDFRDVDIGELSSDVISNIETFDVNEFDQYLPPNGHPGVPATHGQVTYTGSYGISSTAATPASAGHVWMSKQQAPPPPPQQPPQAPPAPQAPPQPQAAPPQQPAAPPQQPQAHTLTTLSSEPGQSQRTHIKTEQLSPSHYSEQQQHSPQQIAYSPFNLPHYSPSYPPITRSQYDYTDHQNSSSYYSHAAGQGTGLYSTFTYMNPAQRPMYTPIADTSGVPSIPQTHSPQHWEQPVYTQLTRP

T1: TSHZ3-HA wild-type (teashirt zinc finger homeobox 3) (human) (UniProt Q63HK5)
T1 sequence: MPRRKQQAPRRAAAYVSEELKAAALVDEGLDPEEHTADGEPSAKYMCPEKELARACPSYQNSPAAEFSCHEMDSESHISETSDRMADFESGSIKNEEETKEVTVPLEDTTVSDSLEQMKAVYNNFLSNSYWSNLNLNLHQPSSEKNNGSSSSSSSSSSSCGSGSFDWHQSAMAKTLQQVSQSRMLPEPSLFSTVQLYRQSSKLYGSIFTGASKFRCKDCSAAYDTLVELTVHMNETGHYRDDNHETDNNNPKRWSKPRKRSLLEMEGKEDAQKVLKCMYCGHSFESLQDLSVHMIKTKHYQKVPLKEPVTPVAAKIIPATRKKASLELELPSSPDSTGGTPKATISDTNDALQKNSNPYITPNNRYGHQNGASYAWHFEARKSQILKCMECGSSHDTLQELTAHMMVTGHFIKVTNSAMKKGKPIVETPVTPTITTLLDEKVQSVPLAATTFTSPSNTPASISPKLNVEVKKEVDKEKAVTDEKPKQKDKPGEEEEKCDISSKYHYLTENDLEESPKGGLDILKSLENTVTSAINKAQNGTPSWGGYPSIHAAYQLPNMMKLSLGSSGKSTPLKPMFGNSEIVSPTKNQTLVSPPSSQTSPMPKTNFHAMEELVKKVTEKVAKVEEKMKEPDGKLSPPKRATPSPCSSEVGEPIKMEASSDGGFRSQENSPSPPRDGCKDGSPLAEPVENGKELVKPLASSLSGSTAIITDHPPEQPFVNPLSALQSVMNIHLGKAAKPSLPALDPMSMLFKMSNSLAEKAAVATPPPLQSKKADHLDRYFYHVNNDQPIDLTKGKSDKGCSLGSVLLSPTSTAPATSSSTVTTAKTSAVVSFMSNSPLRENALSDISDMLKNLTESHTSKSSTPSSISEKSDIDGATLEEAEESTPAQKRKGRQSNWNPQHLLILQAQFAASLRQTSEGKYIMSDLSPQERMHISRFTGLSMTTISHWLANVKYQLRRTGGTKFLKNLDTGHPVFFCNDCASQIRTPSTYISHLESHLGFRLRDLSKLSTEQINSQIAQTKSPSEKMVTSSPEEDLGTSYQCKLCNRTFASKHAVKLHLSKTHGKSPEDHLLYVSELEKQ

T2: TSHZ3-HA Ser58Gly mutant (human) (UniProt Q63HK5)
T2 sequence: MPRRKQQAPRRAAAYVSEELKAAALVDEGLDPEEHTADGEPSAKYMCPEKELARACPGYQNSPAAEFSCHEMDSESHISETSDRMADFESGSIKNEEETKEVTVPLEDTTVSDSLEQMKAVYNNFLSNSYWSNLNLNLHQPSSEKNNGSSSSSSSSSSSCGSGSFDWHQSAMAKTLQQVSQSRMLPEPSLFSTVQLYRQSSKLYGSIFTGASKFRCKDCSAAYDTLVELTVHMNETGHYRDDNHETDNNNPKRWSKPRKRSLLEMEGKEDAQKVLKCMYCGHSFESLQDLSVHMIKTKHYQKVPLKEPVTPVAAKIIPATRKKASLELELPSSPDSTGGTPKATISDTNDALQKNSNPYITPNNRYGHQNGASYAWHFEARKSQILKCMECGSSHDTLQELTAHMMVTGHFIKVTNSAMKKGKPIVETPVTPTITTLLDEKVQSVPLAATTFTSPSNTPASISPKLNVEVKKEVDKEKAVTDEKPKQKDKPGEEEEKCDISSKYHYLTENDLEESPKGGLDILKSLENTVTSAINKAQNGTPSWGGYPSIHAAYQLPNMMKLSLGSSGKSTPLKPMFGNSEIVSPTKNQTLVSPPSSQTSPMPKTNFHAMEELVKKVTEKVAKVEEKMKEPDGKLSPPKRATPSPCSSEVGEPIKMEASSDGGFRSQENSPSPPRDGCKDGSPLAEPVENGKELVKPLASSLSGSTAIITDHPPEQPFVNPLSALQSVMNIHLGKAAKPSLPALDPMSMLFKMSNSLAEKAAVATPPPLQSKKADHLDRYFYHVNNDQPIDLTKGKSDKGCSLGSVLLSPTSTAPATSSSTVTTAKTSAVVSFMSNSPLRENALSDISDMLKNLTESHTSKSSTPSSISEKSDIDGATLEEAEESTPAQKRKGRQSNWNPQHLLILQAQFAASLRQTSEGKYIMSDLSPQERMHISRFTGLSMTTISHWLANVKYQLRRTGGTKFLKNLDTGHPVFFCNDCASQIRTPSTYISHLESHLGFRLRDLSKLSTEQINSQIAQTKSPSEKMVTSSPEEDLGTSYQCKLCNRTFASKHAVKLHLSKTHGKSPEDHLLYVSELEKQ

T3: TSHZ3-HA Ala65Thr mutant (human) (UniProt Q63HK5)
T3 sequence: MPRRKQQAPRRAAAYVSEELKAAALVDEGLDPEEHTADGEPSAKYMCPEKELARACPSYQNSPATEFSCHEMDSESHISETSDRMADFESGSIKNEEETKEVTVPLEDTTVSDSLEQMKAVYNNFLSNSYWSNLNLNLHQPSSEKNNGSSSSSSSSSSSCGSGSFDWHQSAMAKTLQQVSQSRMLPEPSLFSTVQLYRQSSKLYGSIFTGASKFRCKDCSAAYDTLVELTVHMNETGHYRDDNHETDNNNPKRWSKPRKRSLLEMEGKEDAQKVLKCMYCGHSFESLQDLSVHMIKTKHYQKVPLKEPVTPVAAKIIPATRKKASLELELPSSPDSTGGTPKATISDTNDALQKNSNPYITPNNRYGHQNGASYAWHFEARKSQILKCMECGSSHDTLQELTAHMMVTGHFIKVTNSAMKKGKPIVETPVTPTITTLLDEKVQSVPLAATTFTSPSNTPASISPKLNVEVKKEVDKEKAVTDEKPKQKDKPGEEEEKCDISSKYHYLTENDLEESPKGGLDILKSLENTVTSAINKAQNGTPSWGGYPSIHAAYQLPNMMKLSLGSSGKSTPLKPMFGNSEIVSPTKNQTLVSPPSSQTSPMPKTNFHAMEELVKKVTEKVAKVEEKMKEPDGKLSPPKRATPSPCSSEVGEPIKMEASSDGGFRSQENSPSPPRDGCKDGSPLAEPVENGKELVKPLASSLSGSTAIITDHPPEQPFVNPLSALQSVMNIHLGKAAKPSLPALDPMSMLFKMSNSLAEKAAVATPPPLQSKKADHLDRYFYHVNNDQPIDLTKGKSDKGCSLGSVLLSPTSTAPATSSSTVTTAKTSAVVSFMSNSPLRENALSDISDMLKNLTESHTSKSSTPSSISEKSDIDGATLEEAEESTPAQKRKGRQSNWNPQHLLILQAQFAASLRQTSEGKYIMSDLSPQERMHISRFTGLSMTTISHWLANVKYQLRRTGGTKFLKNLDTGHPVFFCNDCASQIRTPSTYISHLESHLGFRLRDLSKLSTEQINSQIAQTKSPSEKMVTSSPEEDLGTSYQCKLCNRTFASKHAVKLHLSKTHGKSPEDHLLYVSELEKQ

T4: TSHZ3-HA Pro63Leu mutant (human) (UniProt Q63HK5)
T4 sequence: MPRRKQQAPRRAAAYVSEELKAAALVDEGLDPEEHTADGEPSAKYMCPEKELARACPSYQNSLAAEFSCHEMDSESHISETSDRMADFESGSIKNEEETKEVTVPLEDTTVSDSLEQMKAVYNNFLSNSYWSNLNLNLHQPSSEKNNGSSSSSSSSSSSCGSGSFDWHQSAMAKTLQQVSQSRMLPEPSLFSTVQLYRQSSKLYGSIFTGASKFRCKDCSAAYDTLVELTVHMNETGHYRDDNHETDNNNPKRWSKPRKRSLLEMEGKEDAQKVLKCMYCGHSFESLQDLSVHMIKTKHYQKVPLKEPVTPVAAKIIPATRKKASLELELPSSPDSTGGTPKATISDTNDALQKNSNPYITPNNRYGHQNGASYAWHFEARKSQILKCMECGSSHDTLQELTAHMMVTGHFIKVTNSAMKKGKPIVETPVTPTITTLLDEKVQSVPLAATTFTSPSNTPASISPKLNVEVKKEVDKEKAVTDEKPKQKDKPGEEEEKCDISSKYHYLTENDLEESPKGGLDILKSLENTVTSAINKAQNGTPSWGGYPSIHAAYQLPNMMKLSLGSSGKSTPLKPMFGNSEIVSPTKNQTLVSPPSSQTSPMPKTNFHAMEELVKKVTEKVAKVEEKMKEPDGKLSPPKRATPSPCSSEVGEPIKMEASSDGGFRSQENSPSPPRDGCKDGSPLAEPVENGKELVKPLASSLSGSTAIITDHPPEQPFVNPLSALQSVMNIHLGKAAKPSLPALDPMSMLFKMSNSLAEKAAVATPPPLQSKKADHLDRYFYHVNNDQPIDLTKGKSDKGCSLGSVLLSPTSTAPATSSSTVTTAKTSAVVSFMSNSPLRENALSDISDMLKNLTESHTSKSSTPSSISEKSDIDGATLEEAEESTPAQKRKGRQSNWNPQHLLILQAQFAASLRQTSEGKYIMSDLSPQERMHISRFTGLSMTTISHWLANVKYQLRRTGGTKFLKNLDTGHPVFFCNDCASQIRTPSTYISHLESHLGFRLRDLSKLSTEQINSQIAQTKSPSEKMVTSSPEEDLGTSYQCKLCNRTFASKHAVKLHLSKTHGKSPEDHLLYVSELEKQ


Columns and labels:
Assay in all cases: co-IP; IP of TSHZ3-HA (wild-type or mutant) with anti-HA beads; Western blot for SOX9-Flag or MYOCD-Flag and for TSHZ3-HA in the IP eluate; densitometric ratio of the Flag protein to TSHZ3-HA; four or three independent experiments
[1] = target: T1, TSHZ3-HA wild-type (teashirt zinc finger homeobox 3) (human)
[2] = target: T2, TSHZ3-HA Ser58Gly mutant (human)
[3] = target: T3, TSHZ3-HA Ala65Thr mutant (human)
[4] = target: T4, TSHZ3-HA Pro63Leu mutant (human)

Row | binding [1] | binding [2] | binding [3] | binding [4] | Molecule
1 | binds | binds | – | – | SOX9-Flag (SRY-box transcription factor 9) (from UniProt P48436 1-509)
2 | binds | binds | binds | binds | MYOCD-Flag (myocardin) (protein, UniProt Q8IZQ8 1-938) MTLLGSEHSLLIRSKFRSVLQLRLQQRRTQEQLANQGIIPPLKRPAEFHEQRKHLDSDKAKNSLKRKARNRCNSADLVNMHILQASTAERSIPTAQMKLKRARLADDLNEKIALRPGPLELVEKNILPVDSAVKEAIKGNQVSFSKSTDAFAFEEDSSSDGLSPDQTRSEDPQNSAGSPPDAKASDTPSTGSLGTNQDLASGSENDRNDSASQPSHQSDAGKQGLGPPSTPIAVHAAVKSKSLGDSKNRHKKPKDPKPKVKKLKYHQYIPPDQKAEKSPPPMDSAYARLLQQQQLFLQLQILSQQQQQQQHRFSYLGMHQAQLKEPNEQMVRNPNSSSTPLSNTPLSPVKNSFSGQTGVSSFKPGPLPPNLDDLKVSELRQQLRIRGLPVSGTKTALMDRLRPFQDCSGNPVPNFGDITTVTFPVTPNTLPNYQSSSSTSALSNGFYHFGSTSSSPPISPASSDLSVAGSLPDTFNDASPSFGLHPSPVHVCTEESLMSSLNGGSVPSELDGLDSEKDKMLVEKQKVINELTWKLQQEQRQVEELRMQLQKQKRNNCSEKKPLPFLAASIKQEEAVSSCPFASQVPVKRQSSSSECHPPACEAAQLQPLGNAHCVESSDQTNVLSSTFLSPQCSPQHSPLGAVKSPQHISLPPSPNNPHFLPSSSGAQGEGHRVSSPISSQVCTAQMAGLHSSDKVGPKFSIPSPTFSKSSSAISEVTQPPSYEDAVKQQMTRSQQMDELLDVLIESGEMPADAREDHSCLQKVPKIPRSSRSPTAVLTKPSASFEQASSGSQIPFDPYATDSDEHLEVLLNSQSPLGKMSDVTLLKIGSEEPHFDGIMDGFSGKAAEDLFNAHEILPGPLSPMQTQFSPSSVDSNGLQLSFTESPWETMEWLDLTPPNSTPGFSALTTSSPSIFNIDFLDVTDLNLNSSMDLHLQQW
